Assay results as given in patent US7053047B2 (Purzer Pharmaceutical Co., Ltd., priority 2002, dated 2006).

Test: general procedure: solution-phase peptide synthesis; DCC/HOBt
Settings: for step yield: late stage modification step; for cyclisation yield: cyclisation step

Substance	step yield [%]	other results
cyclo(GRPAK)	64	
Cyclo[Ala-Arg(Tos)-Pro-Ala-Lys(Z′)]		cyclisation yield (run 1): 5%; cyclisation yield (run 2): 18%; cyclisation yield (run 3): 9%
cyclo(ARPAK)	53	
H-Ala-Arg-Pro-Ala-LysOH (ARPAK)	80	
H-Lys-Arg-Pro-Ala-LysOH (KRPAK; KP6A)	82	
H-Gln-Arg-Pro-Ala-LysOH	80	
cyclo(KRPAK)	60	
Cyclo[Gly-Arg(Tos)-Pro-Ala-Lys(Z′)]		cyclisation yield (run 1): 31%; cyclisation yield (run 2): 29%
H-Gly-Arg-Pro-Ala-LysOH (GRPAK; GP6A)	78	
